Experiment: Inhibition Frequency Index (IFI), promiscuity

Which IFI does the source give for `Nc1nccc(-c2c(-c3ccc(F)cc3)ncn2C2CCNCC2)n1` [Compound 1] here?
The IFI was 50.0.
